# Measured values taken from PubChem BioAssay AID493014 (National Center for Advancing Translational Sciences (NCATS), 2011).
# Hit rate of the full screen: of about 340,000 compounds, about 170 (0.05%) were called active. Inconclusive means that the source gave no clear call. Such entries were picked first, then a sample of the others. The call rests on the fitted dose curve; in most records, active means well fitted inhibition curve with a large enough effect in the signal ratio, with a control signal flat (not every such curve was filed as active); inconclusive means small, poorly fitted or top-dose-only effect, or effect the other way, or a change in a side signal; inactive means flat fitted curve, though single readings scatter; the % refers to the signal ratio. Potencies beside an inconclusive call are fits to weak or partial responses and may not hold up.
# Experiment: qHTS Assay to Find Inhibitors of Chronic Active B-Cell Receptor Signaling;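 on activity change, negative = inhibition: plate controls were basal doxycycline-induced cells for no effect and cells given 10 µM MG132 for full effect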
# Conditions: ABC-DLBCL IkBa-CBG/CBR reporter, luminescence ratio (green luciferase fused to IkBa over red control in TMD8 lymphoma cells), 4 h; activity change, negative = inhibition: at 46.1 µM (top of the series)
# Method in brief: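 Cell line TMD8 (human ABC DLBCL), stably expressing tet-inducible CBG68-IkBa fusion and CBR; IMDM/0.5% FBS; cpd up to 46 uM; dox induction, 4 h, 37C/5% CO2; dual luminescence; green/red ratio; MG132 control.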
# Potency means the concentration at half of the fitted maximal effect.
SMILES,"activity change, negative = inhibition",Potency
Nc1nc2ccc(S(=O)(=O)N3CCCCC3)cc2s1,inactive: -1.03%,
CN(C(=O)COC(=O)c1cccnc1Nc1cccc(C(F)(F)F)c1)C1CCS(=O)(=O)C1 (configuration not stated),,"inconclusive: 10.3 µM [falling, partial curve, poor fit]"
O=C(OCc1cnc(Cl)s1)c1c(F)cccc1F,inconclusive: 10.9%,
COc1cc(/C=N/O)ccc1OCc1ccc([N+](=O)[O-])cc1,inconclusive: -4.96%,
C/C(=N\NC(=O)c1cc(Cl)ccc1O)c1ccc(Br)s1,,"inconclusive: 1.84 µM [rising, full curve, poor fit]"
O=C(NC(=S)NCc1ccccc1)c1ccc2c(c1)OCO2,inactive: 15.4%,
Cc1csc(SCC(=O)Nc2ccccc2)n1,,"inconclusive: 15.8 µM [falling, partial curve, poor fit]"
O=[N+]([O-])c1ccc(NC(=S)N2CCc3ccccc3C2)cc1,inconclusive: 2.22%,
C=CCc1cccc2cc(C(=O)NC(C)(C)C)c(=O)oc12,inconclusive: 8.52%,
COc1cc(OC)c2c(=O)cc(-c3cccnc3)oc2c1,,"inconclusive: 22.4 µM [falling, single point]"
CCOC(=O)N1CCN(c2nc(SC)nc3sc4c(c23)CC(C)(C)OC4)CC1,inconclusive: 6.51%,
Cc1ccc(-c2nnc(Nc3ccccc3)c3ccccc23)cc1S(=O)(=O)NCC1CCCO1 (configuration not stated),,"inconclusive: 11.2 µM [falling, partial curve]"
CN1C(=O)C(N=Nc2ccccc2C(=O)O)N(C)C1=S (configuration not stated),inactive: -0.724%,
Cn1c(-c2cccc3ccccc23)n[nH]c1=S,inactive: 4.66%,
Cc1cc(C)cc(NC(=O)CSc2nc3[nH]ncc3c(=O)[nH]2)c1,inactive: 21.8%,
COc1ccc(NCC(=O)Nc2ccc(Cl)cc2C)c(OC)c1,inconclusive: -14.6%,
CCOc1ccc2nc(N3CCOCC3)nc(C)c2c1,inconclusive: 3.29%,
Cc1cccc(N(CC(=O)NC2CCCC2)C(=O)c2csnn2)c1C,inactive: -0.914%,
C=CCNC(=O)COc1ccc(Oc2ccccc2)cc1,,"inconclusive: 35.5 µM [falling, single point]"
O=C(O)C(=O)/C(=C\c1cccc(Cl)c1)c1ccc2ccccc2n1,,"inconclusive: 14.1 µM [falling, single point]"
O=C(Cc1ccccc1)NC(NC(=O)Cc1ccccc1)c1cccc([N+](=O)[O-])c1,inactive: 5.97%,

SMILES,"activity change, negative = inhibition",Potency
NC(=O)C1(N2CCCCC2)CCN(Cc2ccccc2Cl)CC1,inconclusive: 26.2%,
CC1CCCCC12NC(=O)N(CC(=O)Nc1cccc(S(=O)(=O)N3CCCCC3)c1)C2=O (configuration not stated),inactive: -5.68%,
O=C(NC(=S)Nc1ncc(Br)cc1Br)c1ccccc1,,"inconclusive: 35.5 µM [rising, partial curve]"
O=C(COC(=O)CNC(=O)c1cccc([N+](=O)[O-])c1)Nc1ccccc1OC(F)F,inconclusive: 0.462%,
Cc1cccc(NC(=O)c2ccc3nccnc3c2)n1,inconclusive: -10.7%,
O=C(CSc1nnc(COc2ccc(Cl)cc2)o1)N1c2ccccc2CCc2ccccc21,inconclusive: 6.89%,
Cc1nc2ccc(NC(=O)c3cc(S(=O)(=O)N4CCOCC4)ccc3C)cc2s1,inactive: -8.3%,
COc1ccc(NC(=O)CN2CCN(S(=O)(=O)c3ccc(Cl)cc3)CC2)cc1,inactive: -7.63%,
COc1ccc(/C(N)=N/OC(=O)Cc2cccs2)cc1,inconclusive: -24.6%,
O=C(Cc1ccccc1)NNC(=O)Nc1cccc(Cl)c1,inactive: -0.348%,
Cc1nc(N)c(Br)c(C)c1Br,inconclusive: -15.3%,
CCN(CC(=O)Nc1ccc(OC)cc1)CC(=O)N1CC(=O)Nc2ccccc21,inconclusive: -0.504%,
CCN(C(=O)c1cnc(OC)cc1C(F)(F)F)c1ccc(Cl)cc1Cl,inconclusive: 6.22%,
S=C(NCCCc1ccccc1)Nc1ccccc1,,"inconclusive: 31.6 µM [falling, single point]"
Cc1ccc(S(=O)(=O)N2CCCC2CNC(=O)C(=O)NCc2cccs2)cc1 (configuration not stated),inconclusive: 6.55%,
O=C(CCCCCNc1nc(=S)[nH]c2ccccc12)NCCc1ccc(Cl)cc1,inactive: -6.32%,
CN(C)c1ccc(NC(=O)Nc2ccc3c(c2)nnn3C)cc1,inactive: 0.885%,
CCc1ccc(Nc2oc(C)cc(=O)c2C(C)=O)cc1,inconclusive: -1.2%,
CCN(CC(=O)Nc1cc(Cl)ccc1C)C(=O)C1CCCCC1,,"inconclusive: 1.58 µM [falling, partial curve]"
O=C(Nc1ccc2c(c1)CCC2)c1cc(F)cc(F)c1,inconclusive: 0.449%,
CCn1c(COc2ccccc2C)nnc1SCC(=O)CC(=O)Nc1ccccc1OC,inconclusive: 2.47%,

# Two entries drawn at random from those above:
SMILES,"activity change, negative = inhibition",Potency
CN(C(=O)COC(=O)c1cccnc1Nc1cccc(C(F)(F)F)c1)C1CCS(=O)(=O)C1 (configuration not stated),,"inconclusive: 10.3 µM [falling, partial curve, poor fit]"
C=CCNC(=O)COc1ccc(Oc2ccccc2)cc1,,"inconclusive: 35.5 µM [falling, single point]"
